# Laboratory results taken from the supplement of paper PMC6411743.
# Sequences of proteins named here, by UniProt entry; tags and fusion partners are left off. A change or cut given only in a name is not applied to a line headed by its entry.
# UniProt Q05823: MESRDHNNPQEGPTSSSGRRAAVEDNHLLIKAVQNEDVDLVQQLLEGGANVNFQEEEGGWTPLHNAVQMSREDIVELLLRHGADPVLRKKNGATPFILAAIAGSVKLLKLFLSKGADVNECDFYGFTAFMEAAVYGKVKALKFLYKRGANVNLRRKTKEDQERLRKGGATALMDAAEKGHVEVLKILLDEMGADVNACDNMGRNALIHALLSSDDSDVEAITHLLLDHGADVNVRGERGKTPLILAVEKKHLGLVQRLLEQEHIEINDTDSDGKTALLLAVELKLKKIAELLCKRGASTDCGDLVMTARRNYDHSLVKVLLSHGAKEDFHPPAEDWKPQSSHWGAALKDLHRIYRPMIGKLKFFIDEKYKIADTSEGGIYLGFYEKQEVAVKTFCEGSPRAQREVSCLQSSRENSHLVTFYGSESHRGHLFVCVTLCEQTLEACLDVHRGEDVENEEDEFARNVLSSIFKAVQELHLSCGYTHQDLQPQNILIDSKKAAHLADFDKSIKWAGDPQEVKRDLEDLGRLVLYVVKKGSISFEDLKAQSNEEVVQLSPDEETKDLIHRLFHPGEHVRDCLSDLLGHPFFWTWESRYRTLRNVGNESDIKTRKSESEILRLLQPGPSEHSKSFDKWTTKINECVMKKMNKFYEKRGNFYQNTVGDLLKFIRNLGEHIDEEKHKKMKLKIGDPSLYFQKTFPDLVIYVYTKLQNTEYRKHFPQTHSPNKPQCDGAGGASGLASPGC
# UniProt P60604: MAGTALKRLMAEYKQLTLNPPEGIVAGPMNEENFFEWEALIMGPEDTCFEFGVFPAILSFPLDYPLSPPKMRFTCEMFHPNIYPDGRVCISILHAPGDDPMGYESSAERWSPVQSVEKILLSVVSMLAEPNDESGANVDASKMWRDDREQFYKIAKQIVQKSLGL
# UniProt Q01968: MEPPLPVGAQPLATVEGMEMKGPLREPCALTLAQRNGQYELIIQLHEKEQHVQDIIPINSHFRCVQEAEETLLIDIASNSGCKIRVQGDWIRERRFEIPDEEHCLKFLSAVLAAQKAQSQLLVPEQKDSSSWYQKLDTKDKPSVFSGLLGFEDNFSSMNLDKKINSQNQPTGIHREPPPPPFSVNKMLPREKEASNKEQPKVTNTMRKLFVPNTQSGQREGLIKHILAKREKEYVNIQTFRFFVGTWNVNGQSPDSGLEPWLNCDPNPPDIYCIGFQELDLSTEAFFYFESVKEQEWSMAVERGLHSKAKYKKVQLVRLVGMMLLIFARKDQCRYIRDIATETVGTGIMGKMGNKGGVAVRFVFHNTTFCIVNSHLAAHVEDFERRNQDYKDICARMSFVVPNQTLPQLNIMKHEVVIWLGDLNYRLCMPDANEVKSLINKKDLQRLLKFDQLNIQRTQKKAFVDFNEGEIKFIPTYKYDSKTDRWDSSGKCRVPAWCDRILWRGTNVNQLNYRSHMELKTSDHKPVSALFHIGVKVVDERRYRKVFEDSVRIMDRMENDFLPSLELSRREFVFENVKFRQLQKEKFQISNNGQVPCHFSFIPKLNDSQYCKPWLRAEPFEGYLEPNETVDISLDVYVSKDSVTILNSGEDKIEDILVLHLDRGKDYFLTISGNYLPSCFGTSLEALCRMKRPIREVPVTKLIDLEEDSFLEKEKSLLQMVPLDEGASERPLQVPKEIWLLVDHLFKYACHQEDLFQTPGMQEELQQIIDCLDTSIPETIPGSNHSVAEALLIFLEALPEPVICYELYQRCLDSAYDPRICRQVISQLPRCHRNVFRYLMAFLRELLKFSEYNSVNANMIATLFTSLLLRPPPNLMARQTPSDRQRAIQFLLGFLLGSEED
# UniProt Q00839, whole entry: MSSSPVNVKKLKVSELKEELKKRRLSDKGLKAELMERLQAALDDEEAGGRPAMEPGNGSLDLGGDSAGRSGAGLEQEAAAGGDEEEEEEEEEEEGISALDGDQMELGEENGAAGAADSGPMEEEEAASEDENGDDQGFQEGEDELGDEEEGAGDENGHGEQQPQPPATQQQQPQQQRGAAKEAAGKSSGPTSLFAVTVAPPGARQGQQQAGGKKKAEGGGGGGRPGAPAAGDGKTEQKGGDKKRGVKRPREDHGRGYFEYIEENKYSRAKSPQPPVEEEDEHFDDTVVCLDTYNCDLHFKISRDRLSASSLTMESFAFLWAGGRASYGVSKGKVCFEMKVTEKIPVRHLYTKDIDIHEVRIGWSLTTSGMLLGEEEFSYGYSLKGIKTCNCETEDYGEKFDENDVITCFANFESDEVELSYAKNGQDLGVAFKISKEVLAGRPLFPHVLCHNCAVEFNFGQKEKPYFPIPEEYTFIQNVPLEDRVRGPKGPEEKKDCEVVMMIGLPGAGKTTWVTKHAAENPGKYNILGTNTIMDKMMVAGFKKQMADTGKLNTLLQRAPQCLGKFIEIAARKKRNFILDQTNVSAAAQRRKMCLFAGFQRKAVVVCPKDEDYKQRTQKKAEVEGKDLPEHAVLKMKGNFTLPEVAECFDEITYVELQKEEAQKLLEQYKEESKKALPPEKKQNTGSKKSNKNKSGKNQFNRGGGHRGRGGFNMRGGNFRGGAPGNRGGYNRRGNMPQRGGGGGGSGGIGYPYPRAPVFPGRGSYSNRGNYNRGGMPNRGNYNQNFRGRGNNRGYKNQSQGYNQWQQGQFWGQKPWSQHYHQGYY
# UniProt Q03111: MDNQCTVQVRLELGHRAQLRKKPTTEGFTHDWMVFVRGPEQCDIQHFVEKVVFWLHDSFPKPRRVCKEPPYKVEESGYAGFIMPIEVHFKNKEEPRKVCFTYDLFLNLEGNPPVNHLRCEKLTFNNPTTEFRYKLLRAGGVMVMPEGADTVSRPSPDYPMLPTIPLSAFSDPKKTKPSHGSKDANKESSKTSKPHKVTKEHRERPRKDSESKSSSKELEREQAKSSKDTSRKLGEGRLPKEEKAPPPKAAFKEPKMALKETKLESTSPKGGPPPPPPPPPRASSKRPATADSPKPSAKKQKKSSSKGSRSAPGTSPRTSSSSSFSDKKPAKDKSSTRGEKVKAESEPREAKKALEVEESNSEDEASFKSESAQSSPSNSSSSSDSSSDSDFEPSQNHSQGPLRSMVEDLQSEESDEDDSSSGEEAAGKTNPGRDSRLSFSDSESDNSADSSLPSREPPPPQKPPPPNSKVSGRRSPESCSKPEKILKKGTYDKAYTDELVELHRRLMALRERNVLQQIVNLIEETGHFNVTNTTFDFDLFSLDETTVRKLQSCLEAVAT
# UniProt P61019: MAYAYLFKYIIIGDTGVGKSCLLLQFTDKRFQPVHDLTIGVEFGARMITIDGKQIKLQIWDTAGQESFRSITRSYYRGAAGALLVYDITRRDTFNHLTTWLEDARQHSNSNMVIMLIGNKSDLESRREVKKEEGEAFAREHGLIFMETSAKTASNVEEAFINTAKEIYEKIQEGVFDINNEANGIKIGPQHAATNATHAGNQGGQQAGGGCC
# UniProt Q00722, whole entry: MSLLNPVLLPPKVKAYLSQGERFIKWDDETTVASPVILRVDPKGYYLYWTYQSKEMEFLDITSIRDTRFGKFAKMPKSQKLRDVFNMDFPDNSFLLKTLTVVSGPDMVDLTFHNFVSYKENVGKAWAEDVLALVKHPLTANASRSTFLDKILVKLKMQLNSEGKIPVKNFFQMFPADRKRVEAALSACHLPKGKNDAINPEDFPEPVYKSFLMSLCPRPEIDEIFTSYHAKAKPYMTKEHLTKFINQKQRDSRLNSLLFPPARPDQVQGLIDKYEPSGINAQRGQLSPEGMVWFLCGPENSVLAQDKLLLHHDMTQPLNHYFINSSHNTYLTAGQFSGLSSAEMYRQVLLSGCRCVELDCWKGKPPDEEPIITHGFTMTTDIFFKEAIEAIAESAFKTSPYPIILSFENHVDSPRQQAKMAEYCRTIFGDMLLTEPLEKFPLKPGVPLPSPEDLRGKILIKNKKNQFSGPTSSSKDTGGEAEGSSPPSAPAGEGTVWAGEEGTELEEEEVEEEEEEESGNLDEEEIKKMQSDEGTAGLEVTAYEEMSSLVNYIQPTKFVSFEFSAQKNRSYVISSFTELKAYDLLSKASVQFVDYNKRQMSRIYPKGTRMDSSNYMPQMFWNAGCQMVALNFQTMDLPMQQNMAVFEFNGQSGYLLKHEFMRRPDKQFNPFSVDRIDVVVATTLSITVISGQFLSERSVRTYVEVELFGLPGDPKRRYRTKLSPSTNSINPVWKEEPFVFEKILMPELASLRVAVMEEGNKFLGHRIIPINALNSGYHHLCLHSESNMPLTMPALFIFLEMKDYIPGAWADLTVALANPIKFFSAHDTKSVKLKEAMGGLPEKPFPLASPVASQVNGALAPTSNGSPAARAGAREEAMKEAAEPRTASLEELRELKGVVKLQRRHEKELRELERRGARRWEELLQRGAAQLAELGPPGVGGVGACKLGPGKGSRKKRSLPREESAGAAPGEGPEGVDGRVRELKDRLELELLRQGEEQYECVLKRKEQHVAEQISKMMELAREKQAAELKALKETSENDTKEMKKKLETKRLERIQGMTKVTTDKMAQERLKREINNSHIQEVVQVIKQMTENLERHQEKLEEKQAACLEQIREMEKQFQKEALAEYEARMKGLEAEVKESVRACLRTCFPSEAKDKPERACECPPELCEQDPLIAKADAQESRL
# UniProt Q06210: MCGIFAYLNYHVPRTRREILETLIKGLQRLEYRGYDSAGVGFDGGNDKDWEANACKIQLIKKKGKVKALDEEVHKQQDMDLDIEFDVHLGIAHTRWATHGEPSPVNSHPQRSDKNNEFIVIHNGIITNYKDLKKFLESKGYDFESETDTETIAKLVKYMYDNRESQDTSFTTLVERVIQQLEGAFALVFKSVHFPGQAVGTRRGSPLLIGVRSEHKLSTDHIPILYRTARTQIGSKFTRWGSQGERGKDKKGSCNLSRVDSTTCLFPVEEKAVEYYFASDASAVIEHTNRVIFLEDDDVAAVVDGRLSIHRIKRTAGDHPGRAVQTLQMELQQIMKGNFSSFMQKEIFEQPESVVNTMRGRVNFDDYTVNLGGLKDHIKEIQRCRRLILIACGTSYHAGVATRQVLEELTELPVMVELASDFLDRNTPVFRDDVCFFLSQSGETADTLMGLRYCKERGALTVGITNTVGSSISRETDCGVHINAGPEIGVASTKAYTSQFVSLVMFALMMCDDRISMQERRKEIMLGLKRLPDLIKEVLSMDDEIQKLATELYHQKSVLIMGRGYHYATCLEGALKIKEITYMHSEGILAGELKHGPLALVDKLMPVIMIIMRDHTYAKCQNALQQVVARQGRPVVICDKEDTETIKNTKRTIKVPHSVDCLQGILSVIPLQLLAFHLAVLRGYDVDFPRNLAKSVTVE
# UniProt P86790: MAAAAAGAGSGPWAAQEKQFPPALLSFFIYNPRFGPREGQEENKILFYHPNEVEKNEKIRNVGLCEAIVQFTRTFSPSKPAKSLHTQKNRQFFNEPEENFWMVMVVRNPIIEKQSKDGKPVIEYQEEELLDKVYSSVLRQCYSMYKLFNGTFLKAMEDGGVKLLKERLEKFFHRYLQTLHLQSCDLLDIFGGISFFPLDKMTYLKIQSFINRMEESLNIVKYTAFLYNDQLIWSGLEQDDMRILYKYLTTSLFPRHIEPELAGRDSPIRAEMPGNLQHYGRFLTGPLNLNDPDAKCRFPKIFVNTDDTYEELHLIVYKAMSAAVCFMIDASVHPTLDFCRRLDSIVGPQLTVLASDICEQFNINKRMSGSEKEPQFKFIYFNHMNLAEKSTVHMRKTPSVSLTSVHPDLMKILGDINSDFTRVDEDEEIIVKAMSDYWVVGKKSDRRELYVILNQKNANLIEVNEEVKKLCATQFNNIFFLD
# UniProt P86791: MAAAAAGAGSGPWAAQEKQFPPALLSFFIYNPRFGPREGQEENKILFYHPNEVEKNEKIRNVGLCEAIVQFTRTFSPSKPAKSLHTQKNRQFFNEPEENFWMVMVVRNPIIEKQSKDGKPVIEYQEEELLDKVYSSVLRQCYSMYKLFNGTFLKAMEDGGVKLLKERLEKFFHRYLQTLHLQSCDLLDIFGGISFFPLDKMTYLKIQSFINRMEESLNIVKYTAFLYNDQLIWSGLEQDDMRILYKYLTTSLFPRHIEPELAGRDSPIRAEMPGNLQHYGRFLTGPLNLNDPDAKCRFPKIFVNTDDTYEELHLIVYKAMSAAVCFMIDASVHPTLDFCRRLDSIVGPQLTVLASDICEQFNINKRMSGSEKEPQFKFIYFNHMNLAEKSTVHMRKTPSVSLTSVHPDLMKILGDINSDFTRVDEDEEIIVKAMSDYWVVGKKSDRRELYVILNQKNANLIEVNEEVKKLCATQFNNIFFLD
# UniProt Q01664: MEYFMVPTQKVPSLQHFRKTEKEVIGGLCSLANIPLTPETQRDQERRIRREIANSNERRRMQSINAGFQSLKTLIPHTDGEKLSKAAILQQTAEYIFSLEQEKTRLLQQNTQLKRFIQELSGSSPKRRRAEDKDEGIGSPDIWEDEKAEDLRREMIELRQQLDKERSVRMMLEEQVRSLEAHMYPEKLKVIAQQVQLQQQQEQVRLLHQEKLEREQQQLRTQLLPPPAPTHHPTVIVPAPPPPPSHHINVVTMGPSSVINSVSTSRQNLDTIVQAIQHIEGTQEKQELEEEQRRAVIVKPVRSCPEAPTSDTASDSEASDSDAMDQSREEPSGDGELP
# ± gives the standard deviation of the averaged measurements. Only a part is listed here, and it is no random draw. Most entries show no effect beyond the scatter of the controls.
# Compound: Nc1ncnc2c1ncn2[C@@H]1O[C@H](COP(=O)(O)OP(=O)(O)NP(=O)(O)O)[C@@H](O)[C@H]1O [adenylyl imidodiphosphate]
# Assay: NP40-soluble protein abundance relative to vehicle (solubility fold change) (ratio); higher = more soluble protein in presence of AMP-PNP
# Outline: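 Values are fold changes against the detergent-processed vehicle, based on vsn-normalised intensities. Jurkat crude lysate was treated at eight concentrations from 0.1 to 10 mM (10 min at room temperature, then 3 min at 37 °C), solubilised with 0.8% NP40 and benzonase, ultracentrifuged and analysed by TMT-labelled LC-MS/MS over three independent experiments.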
Target,NP40-soluble protein abundance (concentration: 0.1mM),NP40-soluble protein abundance (concentration: 0.5mM)
UniProt P62834,1.01 ± 0.02,0.985 ± 0.034
MRPS15 (UniProt P82914),1.01 ± 0.012,0.996 ± 0.016
RNASEL (UniProt Q05823),1.03 ± 0.034,1.05 ± 0.038
UniProt Q07820 and related entries,1.01 ± 0.02,0.974 ± 0.019
UniProt P62917,1.06 ± 0.043,1.06 ± 0.011
UniProt P84095,0.993 ± 0.059,0.979 ± 0.099
MRPS9 (UniProt P82933),1.02 ± 0.062,1.02 ± 0.074
UniProt P60866 and related entries,1 ± 0.069,1.02 ± 0.041
UniProt Q07817 and related entries,0.9988 ± 0.0018,0.977 ± 0.018
UniProt P62701,1.04 ± 0.028,1 ± 0.072
UniProt P68104 and related entries,0.997 ± 0.04,0.978 ± 0.01
UniProt P60604 and related entries,1.03 ± 0.055,1.04 ± 0.047
CRYZ (UniProt Q08257),1.02 ± 0.04,0.996 ± 0.051
UniProt Q01968 and related entries,1.01 ± 0.04,1 ± 0.03
UniProt Q00839 and related entries,1.03 ± 0.1,1.05 ± 0.099
MLLT1 (UniProt Q03111),0.999 ± 0.024,1.02 ± 0.04

Target,NP40-soluble protein abundance (concentration: 0.1mM),NP40-soluble protein abundance (concentration: 0.5mM)
RAB2A (UniProt P61019),1.03 ± 0.018,1.03 ± 0.031
UniProt P62854,1.03 ± 0.043,1.03 ± 0.038
SEC61B (UniProt P60468),1.01 ± 0.036,1.04 ± 0.049
ARHGAP1 (UniProt Q07960),0.97 ± 0.039,0.979 ± 0.018
HMGCS1 (UniProt Q01581),0.982 ± 0.023,0.974 ± 0.021
UniProt Q00722 and related entries,0.998 ± 0.035,0.989 ± 0.036
SPAG1 (UniProt Q07617),0.991 ± 0.03,0.984 ± 0.043
UniProt Q02447-3|H0Y6K5 and related entries,1.01 ± 0.079,1.01 ± 0.098
UniProt P55771,0.979 ± 0.016,0.9598 ± 0.0095
CTDSPL2 (UniProt Q05D32),0.985 ± 0.019,1.01 ± 0.019
UniProt Q06210 and related entries,1.02 ± 0.027,1.01 ± 0.081
P86790 and related entries (UniProt P86791+P86790),1.02 ± 0.018,0.973 ± 0.043
TFAP4 (UniProt Q01664),0.99 ± 0.038,0.987 ± 0.046
KIF23 (UniProt Q02241),1.02 ± 0.045,1.01 ± 0.011
UniProt P62249,1.06 ± 0.034,1.04 ± 0.044

# A second format for some results above:
Target	NP40-soluble protein abundance (concentration: 0.1mM)	NP40-soluble protein abundance (concentration: 0.5mM)
UniProt Q06210 and related entries	1.02 ± 0.027	1.01 ± 0.081
P86790 and related entries (UniProt P86791+P86790)	1.02 ± 0.018	0.973 ± 0.043
